This is an account of results in publication PMC8178753.

The data set concerns PkKKT2a central domain (551-679) C646A C649A (Perkinsela sp. CCAP 1560/4). The data set is described as follows: fluorescence anisotropy. The note with it: fluorescein (6-FAMK) in place of T37 of forward strand, FA: 1 nM FAM-dsDNA, 20 min RT, read at 25°C, recombinant protein, label: internal 6-FAM, letters put together from the description.

For at least one entry, the source does not settle the construct or the ends of the probe.

On to “CAATATGTAAGGTGTTTTGGTGTAAAACACGCATTCTTGCATAACATGCA (double strand) [50 mer CEN FAM (BA1674)]”, for which the binding result was “binds”.
